Data on three sequences can be found in patent US20220073911.

For at least one entry, the source does not settle the construct or the ends of the probe. Where cells or extracts were used, other partners may take part. A negative result means that nothing was seen under these conditions.

The data set concerns Peanut protein extract (target allergen Ara h 1). Nature of the data set: binding assay. Particulars: anchor-displacement chip signal, 100 nM aptamer, 5000 vs 0 ppm peanut, stated minimal response to peanut, protein in an extract, single-stranded DNA.

For “TAGGGAAGAGAAGGACATATGATGCACTGGCTGACCTACACGTGGACGATGTGTTGACTAGTACATGACCACTTGA [PC36]”, the binding result (p=0.612 and 0.069) was “no binding”.

As to “TAGGGAAGAGAAGGACATATGATGCGTGTCAGCAATACGTCCTCATCTGCCCGTTGACTAGTACATGACCACTTGA [PC87]”, the binding result (p=0.920 and 0.791) is recorded as “no binding”.

In the case of “TAGGGAAGAGAAGGACATATGATCGTACCGCAAGTGACGTGTCCGTGCCGTGATTGACTAGTACATGACCACTTGA [PC60]”, the binding result (p=0.981) is given as “no binding”.
